From paper PMC6622005 come the findings set out here.

Amino acid sequences for entries named in this document (tags omitted).
UniProt O95758: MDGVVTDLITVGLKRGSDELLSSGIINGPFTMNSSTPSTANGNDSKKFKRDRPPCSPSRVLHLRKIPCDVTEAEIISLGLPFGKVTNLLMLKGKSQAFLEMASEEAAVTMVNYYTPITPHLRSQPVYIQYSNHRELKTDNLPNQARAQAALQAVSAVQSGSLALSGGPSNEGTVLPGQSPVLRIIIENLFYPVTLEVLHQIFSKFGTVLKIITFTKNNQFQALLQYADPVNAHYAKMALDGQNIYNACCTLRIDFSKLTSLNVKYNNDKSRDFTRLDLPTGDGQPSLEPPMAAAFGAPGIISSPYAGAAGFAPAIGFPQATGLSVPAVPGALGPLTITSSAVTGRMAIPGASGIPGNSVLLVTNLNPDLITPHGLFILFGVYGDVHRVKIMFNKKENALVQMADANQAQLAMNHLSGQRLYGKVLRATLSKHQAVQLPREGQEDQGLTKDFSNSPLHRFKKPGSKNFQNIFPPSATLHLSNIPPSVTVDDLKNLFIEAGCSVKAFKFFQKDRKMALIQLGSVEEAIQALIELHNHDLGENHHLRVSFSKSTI
UniProt P67809: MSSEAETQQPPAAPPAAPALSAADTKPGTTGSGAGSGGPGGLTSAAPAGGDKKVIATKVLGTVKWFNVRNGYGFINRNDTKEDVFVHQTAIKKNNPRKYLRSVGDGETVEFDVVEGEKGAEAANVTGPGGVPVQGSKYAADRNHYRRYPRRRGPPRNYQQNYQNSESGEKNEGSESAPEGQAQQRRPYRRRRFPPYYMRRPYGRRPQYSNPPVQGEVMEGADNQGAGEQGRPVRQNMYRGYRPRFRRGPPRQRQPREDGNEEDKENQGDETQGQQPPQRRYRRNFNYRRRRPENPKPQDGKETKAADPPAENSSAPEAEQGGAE

No constants are given. Whether binding was seen depends on the method and setting. In cells and extracts the contact can be indirect. Some entries that bind do so weakly or less than the wild type.

The chains are these.
B1: UPF1 (protein, UniProt Q92900 1-1129)
chain: MSVEAYGPSSQTLTFLDTEEAELLGADTQGSEFEFTDFTLPSQTQTPPGGPGGPGGGGAGGPGGAGAGAAAGQLDAQVGPEGILQNGAVDDSVAKTSQLLAELNFEEDEEDTYYTKDLPIHACSYCGIHDPACVVYCNTSKKWFCNGRGNTSGSHIVNHLVRAKCKEVTLHKDGPLGETVLECYNCGCRNVFLLGFIPAKADSVVVLLCRQPCASQSSLKDINWDSSQWQPLIQDRCFLSWLVKIPSEQEQLRARQITAQQINKLEELWKENPSATLEDLEKPGVDEEPQHVLLRYEDAYQYQNIFGPLVKLEADYDKKLKESQTQDNITVRWDLGLNKKRIAYFTLPKTDSGNEDLVIIWLRDMRLMQGDEICLRYKGDLAPLWKGIGHVIKVPDNYGDEIAIELRSSVGAPVEVTHNFQVDFVWKSTSFDRMQSALKTFAVDETSVSGYIYHKLLGHEVEDVIIKCQLPKRFTAQGLPDLNHSQVYAVKTVLQRPLSLIQGPPGTGKTVTSATIVYHLARQGNGPVLVCAPSNIAVDQLTEKIHQTGLKVVRLCAKSREAIDSPVSFLALHNQIRNMDSMPELQKLQQLKDETGELSSADEKRYRALKRTAERELLMNADVICCTCVGAGDPRLAKMQFRSILIDESTQATEPECMVPVVLGAKQLILVGDHCQLGPVVMCKKAAKAGLSQSLFERLVVLGIRPIRLQVQYRMHPALSAFPSNIFYEGSLQNGVTAADRVKKGFDFQWPQPDKPMFFYVTQGQEEIASSGTSYLNRTEAANVEKITTKLLKAGAKPDQIGIITPYEGQRSYLVQYMQFSGSLHTKLYQEVEIASVDAFQGREKDFIILSCVRANEHQGIGFLNDPRRLNVALTRARYGVIIVGNPKALSKQPLWNHLLNYYKEQKVLVEGPLNNLRESLMQFSKPRKLVNTINPGARFMTTAMYDAREAIIPGSVYDRSSQGRPSSMYFQTHDQIGMISAGPSHVAAMNIPIPFNLVMPPMPPPGYFGQANGPAAGRGTPKGKTGRGGRQKNRFGLPGPSQTNLPNSQASQDVASQPFSQGALTQGYISMSQPSQMSQPGLSQPELSQDSYLGDEFKSQIDVALSQDSTYQGERAYQHGGVTGLSQY
B2: HNRNPM (protein, UniProt P52272 1-730)
chain: MAAGVEAAAEVAATEIKMEEESGAPGVPSGNGAPGPKGEGERPAQNEKRKEKNIKRGGNRFEPYANPTKRYRAFITNIPFDVKWQSLKDLVKEKVGEVTYVELLMDAEGKSRGCAVVEFKMEESMKKAAEVLNKHSLSGRPLKVKEDPDGEHARRAMQKVMATTGGMGMGPGGPGMITIPPSILNNPNIPNEIIHALQAGRLGSTVFVANLDYKVGWKKLKEVFSMAGVVVRADILEDKDGKSRGIGTVTFEQSIEAVQAISMFNGQLLFDRPMHVKMDERALPKGDFFPPERPQQLPHGLGGIGMGLGPGGQPIDANHLNKGIGMGNIGPAGMGMEGIGFGINKMGGMEGPFGGGMENMGRFGSGMNMGRINEILSNALKRGEIIAKQGGGGGGGSVPGIERMGPGIDRLGGAGMERMGAGLGHGMDRVGSEIERMGLVMDRMGSVERMGSGIERMGPLGLDHMASSIERMGQTMERIGSGVERMGAGMGFGLERMAAPIDRVGQTIERMGSGVERMGPAIERMGLSMERMVPAGMGAGLERMGPVMDRMATGLERMGANNLERMGLERMGANSLERMGLERMGANSLERMGPAMGPALGAGIERMGLAMGGGGGASFDRAIEMERGNFGGSFAGSFGGAGGHAPGVARKACQIFVRNLPFDFTWKMLKDKFNECGHVLYADIKMENGKSKGCGVVKFESPEVAERACRMMNGMKLSGREIDVRIDRNA

The assay has as its target Polypyrimidine tract-binding protein 3 (PTBP3), Flag-tagged (human) (UniProt O95758). Nature of the assay: co-IP; IP and Western blot; precipitated protein, cell line and conditions not stated. (In general: Immunoblotting shows a protein as a band on a membrane.)
YBX1 (from UniProt P67809 1-324): the binding result was “binds”.
Regarding B1, the binding result is listed as “binds”.
In the case of B2, the binding entry is “binds”.
